# From the supplement of paper PMC8728848
# The list shows a part of the results.
# Key:
# Experiment in all cases: glycan array binding signal (z-score within array); higher = stronger binding
# Details in all cases: glycan notation: IUPAC condensed, linker removed
# [1] = biological target: Neu5Ac(a2-3)Gal(b1-3)[Neu5Ac(a2-6)]GlcNAc(b1-3)[Fuc(a1-3)[Gal(b1-4)]GlcNAc(b1-6)]Gal(b1-4)Glc
# Procedure, shortened: (§1)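 Columns mapping to the same glycan were averaged after glycan names were converted to IUPAC-condensed notation. The data come from 3228 arrays in the Consortium for Functional Glycomics database, limited to those with an available protein sequence. Binding is reported as a within-array Z-score averaged across arrays of one protein sequence and across linkers.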
# Neu5Ac(a2-3)Gal(b1-4)Glc = biological target: Neu5Ac(a2-3)Gal(b1-4)Glc
# Procedure, shortened: as §1
# [2] = biological target: Neu5Ac(a2-3)Gal(b1-4)GlcNAc
# Procedure, shortened: as §1
# [3] = biological target: Neu5Ac(a2-3)Gal(b1-4)GlcNAc(b1-2)Man
# Procedure, shortened: as §1
# [4] = biological target: Neu5Ac(a2-3)Gal(b1-4)GlcNAc(b1-2)Man(a1-3)[GlcNAc(b1-2)Man(b1-4)GlcNAc(b1-2)Man(a1-6)]Man(b1-4)GlcNAc(b1-4)GlcNAc
# Procedure, shortened: as §1
# [5] = biological target: Neu5Ac(a2-3)Gal(b1-4)GlcNAc(b1-2)Man(a1-3)[Neu5Ac(a2-3)Gal(b1-4)GlcNAc(b1-2)Man(a1-6)]Man(b1-4)GlcNAc(b1-4)[Fuc(a1-6)]GlcNAc
# Procedure, shortened: as §1
# [6] = biological target: Neu5Ac(a2-3)Gal(b1-4)GlcNAc(b1-2)Man(a1-3)[Neu5Ac(a2-6)Gal(b1-4)GlcNAc(b1-2)Man(a1-6)]Man(b1-4)GlcNAc(b1-4)GlcNAc
# Procedure, shortened: as §1
# [7] = biological target: Neu5Ac(a2-3)Gal(b1-4)GlcNAc(b1-2)[Neu5Ac(a2-3)Gal(b1-4)GlcNAc(b1-6)]Man(a1-6)[Neu5Ac(a2-3)Gal(b1-4)GlcNAc(b1-2)Man(a1-3)]Man(b1-4)GlcNAc(b1-4)GlcNAc
# Procedure, shortened: as §1
# [8] = biological target: Neu5Ac(a2-3)Gal(b1-4)GlcNAc(b1-3)Gal
# Procedure, shortened: as §1
# [9] = biological target: Neu5Ac(a2-3)Gal(b1-4)GlcNAc(b1-3)Gal(b1-3)GlcNAc
# Procedure, shortened: as §1
# [10] = biological target: Neu5Ac(a2-3)Gal(b1-4)GlcNAc(b1-3)Gal(b1-4)GlcNAc
# Procedure, shortened: as §1
# [11] = biological target: Neu5Ac(a2-3)Gal(b1-4)GlcNAc(b1-3)Gal(b1-4)GlcNAc(b1-3)Gal(b1-4)GlcNAc
# Procedure, shortened: as §1
# [12] = biological target: Neu5Ac(a2-3)Gal(b1-4)GlcNAc(b1-3)Gal(b1-4)[Fuc(a1-3)]GlcNAc
# Procedure, shortened: as §1
# [13] = biological target: Neu5Ac(a2-3)Gal(b1-4)GlcNAc(b1-3)GalNAc
# Procedure, shortened: as §1
# [14] = biological target: Neu5Ac(a2-3)Gal(b1-4)GlcNAc(b1-3)[Neu5Ac(a2-3)Gal(b1-4)GlcNAc(b1-6)]GalNAc
# Procedure, shortened: as §1
# [15] = biological target: Neu5Ac(a2-3)Gal(b1-4)GlcNAc(b1-6)GalNAc
# Procedure, shortened: as §1
# [16] = biological target: Neu5Ac(a2-3)Gal(b1-4)GlcNAc(b1-6)[Gal(b1-3)]GalNAc
# Procedure, shortened: as §1
# [17] = biological target: Neu5Ac(a2-3)Gal(b1-4)GlcNAc(b1-6)[Neu5Ac(a2-3)Gal(b1-3)]GalNAc
# Procedure, shortened: as §1
# [18] = biological target: Neu5Ac(a2-3)Gal(b1-4)GlcNAc6S
# Procedure, shortened: as §1
# [19] = biological target: Neu5Ac(a2-3)Gal(b1-4)[Fuc(a1-3)]GlcNAc
# Procedure, shortened: as §1
# [20] = biological target: Neu5Ac(a2-3)Gal(b1-4)[Fuc(a1-3)]GlcNAc(b1-3)Gal
# Procedure, shortened: as §1
# [21] = biological target: Neu5Ac(a2-3)Gal(b1-4)[Fuc(a1-3)]GlcNAc(b1-3)Gal(b1-4)GlcNAc
# Procedure, shortened: as §1
# [22] = biological target: Neu5Ac(a2-3)Gal(b1-4)[Fuc(a1-3)]GlcNAc(b1-3)Gal(b1-4)[Fuc(a1-3)]GlcNAc(b1-3)Gal(b1-4)[Fuc(a1-3)]GlcNAc
# Procedure, shortened: as §1
# [23] = biological target: Neu5Ac(a2-3)Gal(b1-4)[Fuc(a1-3)]GlcNAc(b1-3)GalNAc
# Procedure, shortened: as §1
# [24] = biological target: Neu5Ac(a2-3)Gal(b1-4)[Fuc(a1-3)]GlcNAc(b1-6)[Gal(b1-3)]GalNAc
# Procedure, shortened: as §1
# [25] = biological target: Neu5Ac(a2-3)Gal(b1-4)[Fuc(a1-3)]GlcNAc6S
# Procedure, shortened: as §1
# [26] = biological target: Neu5Ac(a2-3)Gal6S(b1-4)GlcNAc
# Procedure, shortened: as §1
# [27] = biological target: Neu5Ac(a2-3)Gal6S(b1-4)[Fuc(a1-3)]GlcNAc
# Procedure, shortened: as §1
# Neu5Ac(a2-3)GalNAc = biological target: Neu5Ac(a2-3)GalNAc
# Procedure, shortened: as §1
# [28] = biological target: Neu5Ac(a2-3)GalNAc(b1-4)GlcNAc
# Procedure, shortened: as §1
# [29] = biological target: Neu5Ac(a2-3)[GalNAc(b1-4)]Gal(b1-4)Glc
# Procedure, shortened: as §1
# [30] = biological target: Neu5Ac(a2-3)[GalNAc(b1-4)]Gal(b1-4)GlcNAc
# Procedure, shortened: as §1
# [31] = biological target: Neu5Ac(a2-3)[GalNAc(b1-4)]Gal(b1-4)GlcNAc(b1-3)GalNAc
# Procedure, shortened: as §1
# [32] = biological target: Neu5Ac(a2-3)[Neu5Ac(a2-6)]GalNAc
# Procedure, shortened: as §1
# Neu5Ac(a2-6)Gal = biological target: Neu5Ac(a2-6)Gal
# Procedure, shortened: as §1
# [33] = biological target: Neu5Ac(a2-6)Gal(b1-3)GlcNAc(b1-3)[Gal(b1-4)GlcNAc(b1-6)]Gal(b1-4)Glc
# Procedure, shortened: as §1
# Neu5Ac(a2-6)Gal(b1-4)Glc = biological target: Neu5Ac(a2-6)Gal(b1-4)Glc
# Procedure, shortened: as §1
# [34] = biological target: Neu5Ac(a2-6)Gal(b1-4)GlcNAc
# Procedure, shortened: as §1
# [35] = biological target: Neu5Ac(a2-6)Gal(b1-4)GlcNAc(b1-2)Man(a1-3)Man(b1-4)GlcNAc(b1-4)GlcNAc
# Procedure, shortened: as §1
# [36] = biological target: Neu5Ac(a2-6)Gal(b1-4)GlcNAc(b1-2)Man(a1-3)[Gal(b1-4)GlcNAc(b1-2)Man(a1-6)]Man(b1-4)GlcNAc(b1-4)GlcNAc
# Procedure, shortened: as §1
# [37] = biological target: Neu5Ac(a2-6)Gal(b1-4)GlcNAc(b1-2)Man(a1-3)[GlcNAc(b1-2)Man(a1-6)]Man(b1-4)GlcNAc(b1-4)GlcNAc
# Procedure, shortened: as §1
# [38] = biological target: Neu5Ac(a2-6)Gal(b1-4)GlcNAc(b1-2)Man(a1-3)[GlcNAc(b1-2)Man(b1-4)GlcNAc(b1-2)Man(a1-6)]Man(b1-4)GlcNAc(b1-4)GlcNAc
# Procedure, shortened: as §1
binder,measurement,setting,value
CALR truncated at D342 (Homo sapiens) (protein) EPAVYFKEQFLDGDGWTSRWIESKHKSDFGKFVLSSGKFYGDEEKDKGLQTSQDARFYALSASFEPFSNKGQTLVVQFTVKHEQNIDCGGGYVKLFPNSLDQTDMHGDSEYNIMFGPDICGPGTKKVHVIFNYKGKNVLINKDIRCKDDEFTHLYTLIVRPDNTYEVKIDNSQVESGSLEDDWDFLPPKKIKDPDASKPEDWDERAKIDDPTDSKPEDWDKPEHIPDPDAKKPEDWDEEMDGEWEPPVIQNPEYKGEWKPRQIDNPDYKGTWIHPEIDNPEYSPDPSIYAYDNFGVLGLDLWQVKSGTIFDNFLITNDEAYAEEFGNETWGVTKAAEKQMKD,glycan array binding signal (z-score),[1],0.026
same,glycan array binding signal (z-score),Neu5Ac(a2-3)Gal(b1-4)Glc,0.264
same,glycan array binding signal (z-score),[2],-0.691
same,glycan array binding signal (z-score),[3],1.56
same,glycan array binding signal (z-score),[4],0.262
same,glycan array binding signal (z-score),[5],-0.547
same,glycan array binding signal (z-score),[6],0.174
same,glycan array binding signal (z-score),[7],-0.637
same,glycan array binding signal (z-score),[8],-0.413
same,glycan array binding signal (z-score),[9],-0.238
same,glycan array binding signal (z-score),[10],-1.28
same,glycan array binding signal (z-score),[11],-0.788
same,glycan array binding signal (z-score),[12],1.2
same,glycan array binding signal (z-score),[13],-0.856
same,glycan array binding signal (z-score),[14],-0.117
same,glycan array binding signal (z-score),[15],0.454
same,glycan array binding signal (z-score),[16],-0.684
same,glycan array binding signal (z-score),[17],-1.7
same,glycan array binding signal (z-score),[18],-0.22
same,glycan array binding signal (z-score),[19],-0.849
same,glycan array binding signal (z-score),[20],-0.711
same,glycan array binding signal (z-score),[21],0.453
same,glycan array binding signal (z-score),[22],0.606
same,glycan array binding signal (z-score),[23],1.5
same,glycan array binding signal (z-score),[24],-0.059
same,glycan array binding signal (z-score),[25],1.77
same,glycan array binding signal (z-score),[26],-0.435
same,glycan array binding signal (z-score),[27],0.177
same,glycan array binding signal (z-score),Neu5Ac(a2-3)GalNAc,-0.187
same,glycan array binding signal (z-score),[28],-0.937
same,glycan array binding signal (z-score),[29],-0.243
same,glycan array binding signal (z-score),[30],0.289
same,glycan array binding signal (z-score),[31],0.131
same,glycan array binding signal (z-score),[32],-0.012
same,glycan array binding signal (z-score),Neu5Ac(a2-6)Gal,-0.349
same,glycan array binding signal (z-score),[33],-0.428
same,glycan array binding signal (z-score),Neu5Ac(a2-6)Gal(b1-4)Glc,-0.461
same,glycan array binding signal (z-score),[34],0.272
same,glycan array binding signal (z-score),[35],-1.97
same,glycan array binding signal (z-score),[36],0.794
same,glycan array binding signal (z-score),[37],-0.321
same,glycan array binding signal (z-score),[38],0.761

# Retrieved one by one from the entries so far, 4 records:
binder,measurement,setting,value
CALR truncated at D342 (Homo sapiens) (protein) EPAVYFKEQFLDGDGWTSRWIESKHKSDFGKFVLSSGKFYGDEEKDKGLQTSQDARFYALSASFEPFSNKGQTLVVQFTVKHEQNIDCGGGYVKLFPNSLDQTDMHGDSEYNIMFGPDICGPGTKKVHVIFNYKGKNVLINKDIRCKDDEFTHLYTLIVRPDNTYEVKIDNSQVESGSLEDDWDFLPPKKIKDPDASKPEDWDERAKIDDPTDSKPEDWDKPEHIPDPDAKKPEDWDEEMDGEWEPPVIQNPEYKGEWKPRQIDNPDYKGTWIHPEIDNPEYSPDPSIYAYDNFGVLGLDLWQVKSGTIFDNFLITNDEAYAEEFGNETWGVTKAAEKQMKD,glycan array binding signal (z-score),Neu5Ac(a2-6)Gal(b1-4)Glc,-0.461
same,glycan array binding signal (z-score),[33],-0.428
same,glycan array binding signal (z-score),[22],0.606
same,glycan array binding signal (z-score),[21],0.453
